Data from publication PMC6007307.
No constants are given. Whether binding was seen depends on the method and setting. In cells and extracts the contact can be indirect. A yes stands for co-enrichment or nearness to the bait. Other partners may have been found. No binding means not detected with the bait. Sequences can lack the tags named with a protein.

Target: T1, FLAG-tagged IFIT5 (human) (UniProt Q13325)
T1 sequence: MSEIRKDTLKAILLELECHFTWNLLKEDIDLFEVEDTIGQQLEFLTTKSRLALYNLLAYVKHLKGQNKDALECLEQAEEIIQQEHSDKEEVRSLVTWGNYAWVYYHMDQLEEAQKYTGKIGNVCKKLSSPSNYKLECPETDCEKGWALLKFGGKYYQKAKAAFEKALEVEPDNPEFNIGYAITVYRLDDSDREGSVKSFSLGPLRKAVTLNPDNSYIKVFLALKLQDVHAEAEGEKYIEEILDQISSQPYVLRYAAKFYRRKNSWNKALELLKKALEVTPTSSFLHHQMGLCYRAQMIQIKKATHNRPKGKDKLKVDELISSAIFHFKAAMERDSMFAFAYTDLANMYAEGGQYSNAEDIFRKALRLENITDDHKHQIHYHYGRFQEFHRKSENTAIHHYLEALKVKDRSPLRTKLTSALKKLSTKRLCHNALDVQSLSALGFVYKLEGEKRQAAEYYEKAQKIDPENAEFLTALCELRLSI
Experiment: affinity purification with mass spectrometry; SILAC; anti-FLAG-M2 affinity gel, 4°C 18 h, on Benzonase nuclease treated lysates of transfected HEK293T cells treated with 1000 U/ml IFN-alpha for 16 h; three biological replicates

Substance: IFIT3 (endogenous, IFN-stimulated HEK293T) (from UniProt O14879 1-490)
- binding: no binding
